Data taken from the supplement of paper PMC10849652.
The other results are listed elsewhere or left out.

The chains behind the UniProt entries cited, without tags or fusion partners. Where a name states a change or a piece, a line headed by the entry shows the natural chain unless it says otherwise.
UniProt P27707: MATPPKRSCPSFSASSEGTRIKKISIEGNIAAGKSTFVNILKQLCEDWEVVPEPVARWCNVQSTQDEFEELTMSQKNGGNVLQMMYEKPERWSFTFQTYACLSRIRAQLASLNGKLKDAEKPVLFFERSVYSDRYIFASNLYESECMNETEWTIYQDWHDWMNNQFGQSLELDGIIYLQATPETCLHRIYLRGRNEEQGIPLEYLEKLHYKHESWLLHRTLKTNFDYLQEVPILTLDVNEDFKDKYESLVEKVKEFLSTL
UniProt P51397: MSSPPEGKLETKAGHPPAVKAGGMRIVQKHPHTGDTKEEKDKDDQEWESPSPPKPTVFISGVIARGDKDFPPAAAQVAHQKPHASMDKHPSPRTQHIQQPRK
UniProt Q13618, whole entry, looked up: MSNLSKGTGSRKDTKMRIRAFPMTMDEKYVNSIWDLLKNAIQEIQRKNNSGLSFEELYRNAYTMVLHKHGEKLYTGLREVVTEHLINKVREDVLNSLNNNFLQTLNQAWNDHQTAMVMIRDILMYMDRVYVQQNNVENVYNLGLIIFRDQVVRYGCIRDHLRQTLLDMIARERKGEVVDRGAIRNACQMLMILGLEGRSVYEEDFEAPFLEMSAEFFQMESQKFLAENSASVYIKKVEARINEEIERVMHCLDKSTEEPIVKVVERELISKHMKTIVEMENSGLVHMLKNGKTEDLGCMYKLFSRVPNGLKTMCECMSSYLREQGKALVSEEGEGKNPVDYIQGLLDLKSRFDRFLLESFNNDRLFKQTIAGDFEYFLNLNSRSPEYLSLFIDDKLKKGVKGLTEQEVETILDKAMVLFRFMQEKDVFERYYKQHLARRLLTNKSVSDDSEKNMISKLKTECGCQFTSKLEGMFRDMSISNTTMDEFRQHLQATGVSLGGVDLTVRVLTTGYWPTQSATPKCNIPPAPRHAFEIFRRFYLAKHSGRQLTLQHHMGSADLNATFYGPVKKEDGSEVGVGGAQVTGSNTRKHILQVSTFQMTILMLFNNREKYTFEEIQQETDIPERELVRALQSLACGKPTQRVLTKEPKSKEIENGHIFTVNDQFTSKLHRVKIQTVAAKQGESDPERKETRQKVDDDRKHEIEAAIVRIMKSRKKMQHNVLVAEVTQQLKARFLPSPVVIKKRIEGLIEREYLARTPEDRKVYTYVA
UniProt Q12996: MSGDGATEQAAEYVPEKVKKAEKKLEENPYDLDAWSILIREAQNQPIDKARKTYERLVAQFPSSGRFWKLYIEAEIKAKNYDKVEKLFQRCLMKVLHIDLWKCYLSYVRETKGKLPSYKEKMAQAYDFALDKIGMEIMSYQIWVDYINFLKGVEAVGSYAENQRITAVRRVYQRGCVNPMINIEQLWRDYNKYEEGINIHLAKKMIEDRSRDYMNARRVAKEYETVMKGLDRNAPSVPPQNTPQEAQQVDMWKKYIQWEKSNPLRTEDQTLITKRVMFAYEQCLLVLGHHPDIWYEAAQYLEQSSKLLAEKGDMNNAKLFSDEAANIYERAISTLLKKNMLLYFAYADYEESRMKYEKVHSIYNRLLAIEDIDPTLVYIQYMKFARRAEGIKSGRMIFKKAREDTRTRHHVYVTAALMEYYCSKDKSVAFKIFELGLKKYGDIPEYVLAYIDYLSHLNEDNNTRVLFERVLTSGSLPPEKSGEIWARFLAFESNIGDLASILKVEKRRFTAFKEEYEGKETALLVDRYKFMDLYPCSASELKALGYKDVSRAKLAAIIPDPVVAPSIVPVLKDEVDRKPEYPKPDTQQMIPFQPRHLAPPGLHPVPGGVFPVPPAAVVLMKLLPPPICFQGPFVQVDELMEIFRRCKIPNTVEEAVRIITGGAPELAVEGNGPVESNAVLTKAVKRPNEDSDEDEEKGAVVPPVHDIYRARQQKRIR
UniProt P21291: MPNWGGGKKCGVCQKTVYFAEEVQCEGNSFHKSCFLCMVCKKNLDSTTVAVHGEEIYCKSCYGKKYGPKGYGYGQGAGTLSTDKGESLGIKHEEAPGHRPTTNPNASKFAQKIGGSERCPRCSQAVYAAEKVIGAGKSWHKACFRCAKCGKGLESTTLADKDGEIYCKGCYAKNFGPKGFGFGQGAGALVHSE
UniProt P98082: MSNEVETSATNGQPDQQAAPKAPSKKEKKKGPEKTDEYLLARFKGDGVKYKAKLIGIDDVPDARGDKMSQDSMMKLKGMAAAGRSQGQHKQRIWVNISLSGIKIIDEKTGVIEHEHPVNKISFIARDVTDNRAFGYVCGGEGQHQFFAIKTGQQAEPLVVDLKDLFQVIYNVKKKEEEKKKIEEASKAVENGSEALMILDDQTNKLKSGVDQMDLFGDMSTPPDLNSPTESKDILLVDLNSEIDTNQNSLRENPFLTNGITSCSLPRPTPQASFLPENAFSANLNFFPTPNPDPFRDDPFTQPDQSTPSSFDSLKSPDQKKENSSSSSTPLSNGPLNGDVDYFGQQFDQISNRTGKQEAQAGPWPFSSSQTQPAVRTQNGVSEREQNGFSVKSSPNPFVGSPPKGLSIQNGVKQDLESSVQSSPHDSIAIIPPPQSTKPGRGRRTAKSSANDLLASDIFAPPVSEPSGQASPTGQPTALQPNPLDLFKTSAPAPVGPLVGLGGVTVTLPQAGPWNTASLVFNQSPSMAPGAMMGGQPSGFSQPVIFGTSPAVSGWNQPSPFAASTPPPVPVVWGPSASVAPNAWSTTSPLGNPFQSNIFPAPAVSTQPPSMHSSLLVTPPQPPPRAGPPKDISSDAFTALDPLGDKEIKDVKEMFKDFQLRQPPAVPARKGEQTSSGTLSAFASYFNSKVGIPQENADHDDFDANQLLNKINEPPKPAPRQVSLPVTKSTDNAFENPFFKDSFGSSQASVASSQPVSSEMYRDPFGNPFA
UniProt P11182, whole entry, looked up: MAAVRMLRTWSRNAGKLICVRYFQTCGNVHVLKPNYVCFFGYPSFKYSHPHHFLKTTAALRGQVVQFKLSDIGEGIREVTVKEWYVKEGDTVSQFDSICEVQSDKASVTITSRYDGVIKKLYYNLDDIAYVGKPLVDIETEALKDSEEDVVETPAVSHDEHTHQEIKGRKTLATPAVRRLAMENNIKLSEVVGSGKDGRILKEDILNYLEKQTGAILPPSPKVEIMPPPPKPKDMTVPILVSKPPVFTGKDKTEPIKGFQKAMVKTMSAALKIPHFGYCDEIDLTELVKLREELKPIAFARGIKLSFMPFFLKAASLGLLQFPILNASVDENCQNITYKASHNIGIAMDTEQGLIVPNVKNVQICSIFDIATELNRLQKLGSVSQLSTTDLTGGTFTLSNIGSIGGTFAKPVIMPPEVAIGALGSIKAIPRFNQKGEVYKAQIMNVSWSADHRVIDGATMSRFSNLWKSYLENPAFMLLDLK
UniProt Q8N465: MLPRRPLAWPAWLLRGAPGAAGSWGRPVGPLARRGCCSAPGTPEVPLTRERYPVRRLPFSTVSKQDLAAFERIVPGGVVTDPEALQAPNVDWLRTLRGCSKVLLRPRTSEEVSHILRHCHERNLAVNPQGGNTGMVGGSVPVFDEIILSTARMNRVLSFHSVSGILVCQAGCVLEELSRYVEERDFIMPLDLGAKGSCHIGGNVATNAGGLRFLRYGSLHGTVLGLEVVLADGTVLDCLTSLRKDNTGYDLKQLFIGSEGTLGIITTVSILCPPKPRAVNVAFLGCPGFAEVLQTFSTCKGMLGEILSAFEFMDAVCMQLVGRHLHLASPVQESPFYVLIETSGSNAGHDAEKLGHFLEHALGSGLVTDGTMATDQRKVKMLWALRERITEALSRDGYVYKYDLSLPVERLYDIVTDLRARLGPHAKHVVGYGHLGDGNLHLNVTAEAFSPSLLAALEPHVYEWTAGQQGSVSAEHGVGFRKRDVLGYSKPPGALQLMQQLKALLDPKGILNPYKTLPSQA
UniProt Q6UW02: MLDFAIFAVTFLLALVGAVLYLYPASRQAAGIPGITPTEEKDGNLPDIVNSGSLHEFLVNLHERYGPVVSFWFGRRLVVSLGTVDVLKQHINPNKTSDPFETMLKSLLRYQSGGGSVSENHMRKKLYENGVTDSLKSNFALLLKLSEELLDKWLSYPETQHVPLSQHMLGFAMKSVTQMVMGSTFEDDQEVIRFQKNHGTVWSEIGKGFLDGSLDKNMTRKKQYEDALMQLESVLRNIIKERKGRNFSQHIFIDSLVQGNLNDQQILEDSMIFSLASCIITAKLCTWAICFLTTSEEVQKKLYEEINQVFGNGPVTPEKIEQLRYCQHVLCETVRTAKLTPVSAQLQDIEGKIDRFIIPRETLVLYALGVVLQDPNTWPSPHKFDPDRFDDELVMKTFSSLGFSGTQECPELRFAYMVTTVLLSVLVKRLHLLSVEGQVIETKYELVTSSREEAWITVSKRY
UniProt Q6UX04: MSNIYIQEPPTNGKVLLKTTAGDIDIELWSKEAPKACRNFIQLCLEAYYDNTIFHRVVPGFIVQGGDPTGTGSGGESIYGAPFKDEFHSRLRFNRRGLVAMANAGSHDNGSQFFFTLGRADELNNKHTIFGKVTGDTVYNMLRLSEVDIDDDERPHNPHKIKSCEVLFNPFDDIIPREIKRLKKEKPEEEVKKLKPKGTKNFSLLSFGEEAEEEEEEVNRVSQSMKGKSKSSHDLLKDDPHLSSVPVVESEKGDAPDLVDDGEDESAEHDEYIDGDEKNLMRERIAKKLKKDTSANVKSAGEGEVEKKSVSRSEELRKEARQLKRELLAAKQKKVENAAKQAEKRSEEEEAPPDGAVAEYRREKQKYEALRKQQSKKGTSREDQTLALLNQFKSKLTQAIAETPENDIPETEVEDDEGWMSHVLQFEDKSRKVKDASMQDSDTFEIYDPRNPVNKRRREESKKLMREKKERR
UniProt P01034: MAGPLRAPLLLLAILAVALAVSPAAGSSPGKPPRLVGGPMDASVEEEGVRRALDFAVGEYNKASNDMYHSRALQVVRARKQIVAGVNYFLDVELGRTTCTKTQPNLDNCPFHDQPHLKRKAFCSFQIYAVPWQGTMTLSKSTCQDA
UniProt E9PJD7, whole entry, looked up: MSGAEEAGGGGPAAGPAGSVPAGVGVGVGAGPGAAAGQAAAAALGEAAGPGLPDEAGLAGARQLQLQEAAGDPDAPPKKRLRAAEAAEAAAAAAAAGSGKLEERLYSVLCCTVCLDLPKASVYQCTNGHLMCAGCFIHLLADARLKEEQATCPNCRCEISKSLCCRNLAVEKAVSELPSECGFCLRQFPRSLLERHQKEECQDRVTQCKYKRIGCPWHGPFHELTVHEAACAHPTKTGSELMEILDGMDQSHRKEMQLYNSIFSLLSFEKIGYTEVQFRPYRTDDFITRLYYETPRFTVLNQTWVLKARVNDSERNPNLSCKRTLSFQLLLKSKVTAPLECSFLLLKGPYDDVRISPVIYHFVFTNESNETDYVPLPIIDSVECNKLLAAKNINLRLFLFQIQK
UniProt Q9UK59: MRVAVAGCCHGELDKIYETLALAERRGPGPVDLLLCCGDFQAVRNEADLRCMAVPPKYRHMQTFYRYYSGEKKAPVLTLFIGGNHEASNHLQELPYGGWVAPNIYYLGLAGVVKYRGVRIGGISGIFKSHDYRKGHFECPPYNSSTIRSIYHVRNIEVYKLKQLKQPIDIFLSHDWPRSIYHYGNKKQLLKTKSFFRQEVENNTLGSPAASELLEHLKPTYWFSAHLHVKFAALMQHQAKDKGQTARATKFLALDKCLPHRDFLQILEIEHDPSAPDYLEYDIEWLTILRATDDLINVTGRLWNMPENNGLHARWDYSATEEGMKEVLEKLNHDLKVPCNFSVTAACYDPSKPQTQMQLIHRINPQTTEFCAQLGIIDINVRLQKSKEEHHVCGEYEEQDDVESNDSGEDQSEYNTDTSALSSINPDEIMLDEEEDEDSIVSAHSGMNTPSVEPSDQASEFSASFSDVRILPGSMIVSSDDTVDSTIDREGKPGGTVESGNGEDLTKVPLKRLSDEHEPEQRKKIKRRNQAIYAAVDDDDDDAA
UniProt Q9H0L4: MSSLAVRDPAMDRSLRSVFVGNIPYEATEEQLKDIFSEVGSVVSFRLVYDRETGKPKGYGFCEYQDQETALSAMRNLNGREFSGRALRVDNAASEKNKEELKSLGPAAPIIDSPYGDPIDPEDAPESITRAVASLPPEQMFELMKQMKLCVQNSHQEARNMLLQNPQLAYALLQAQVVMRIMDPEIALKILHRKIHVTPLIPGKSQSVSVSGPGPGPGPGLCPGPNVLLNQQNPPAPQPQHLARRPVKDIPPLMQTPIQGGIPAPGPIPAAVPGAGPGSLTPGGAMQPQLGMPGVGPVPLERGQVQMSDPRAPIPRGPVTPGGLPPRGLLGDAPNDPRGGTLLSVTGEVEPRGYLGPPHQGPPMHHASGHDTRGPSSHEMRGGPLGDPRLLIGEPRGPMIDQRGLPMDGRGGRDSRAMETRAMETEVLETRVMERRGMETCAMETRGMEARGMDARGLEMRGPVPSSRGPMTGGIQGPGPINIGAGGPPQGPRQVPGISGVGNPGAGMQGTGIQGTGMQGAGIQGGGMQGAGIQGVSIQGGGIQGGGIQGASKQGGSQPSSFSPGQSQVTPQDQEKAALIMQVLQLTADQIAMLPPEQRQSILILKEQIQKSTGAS

Key:
Test in all cases: log2 fold change, soluble protein after heating vs DMSO (PISA); higher = thermal stabilisation; K562 cells, 10 uM, 30 min; active = over 0.2 and 3.5 SD of the protein, either way, in both replicates (recomputed)
erlotinib = compound: C#Cc1cccc(Nc2ncnc3cc(OCCOC)c(OCCOC)cc23)c1 [erlotinib]
Outline: (§1)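 For each measurement, 10 μM compound was applied for 30 min to K562 cells at 2×10^6 cells/mL. Aliquots were heated for 3 min across 48°C-58°C, pooled, and extracted in PBS with 0.5% NP-40 at 4°C; the supernatant after 21,000xg for 90 min was soluble protein. This was quantified by TMTpro 16plex LC-MS/MS with channel sums equalised, and thermal stability was reported relative to control samples from duplicates, on a log2 fold-change scale.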

[1] = compound: C/C(=N\NC(=O)C1=CC(=CC=C1)S(=O)(=O)N2CCOCC2)/C3=C(C=CC(=C3)Cl)O
Outline: as §1

[2] = compound: C1=CC(=C(C=C1Cl)C2=NC3=NC=CN=C3C(=N2)NC4=CC=NC=C4)F
Outline: as §1

[3] = compound: C1=CC(=CC=C1C2=NC3=C(N2)C=C(C=C3)C(=O)N)OC4=CC=C(C=C4)Cl
Outline: as §1

[4] = compound: C1=CC2=C(C=CC(=C2)/C=C\3/C(=O)NC(=NCC4=CC=CS4)S3)N=C1
Outline: as §1

[5] = compound: C1=CC2=NC=CN=C2C=C1/C=C/3\C(=O)NC(=O)S3
Outline: as §1

[6] = compound: C1=CC=C(C=C1)C2=NC(=C(N2)C3=CC=NC=C3)C4=CC(=C(C=C4)Cl)O
Outline: as §1

[7] = compound: C1=CC=C2C(=C1)C3=NNC4=CC=CC(=C43)C2=O
Outline: as §1

[8] = compound: C1CCN(C1)C(=O)NC2=CC=CC(=C2)NC3=NC=C(C(=N3)NCCC4=CN=CN4)Br
Outline: as §1

[9] = compound: C1CN(CCC1(CC2=CC=C(C=C2)Cl)N)C3=NC=NC4=C3C=CN4
Outline: as §1

Measured: log2 fold change

DCK (UniProt P27707)
inactive: erlotinib 0.032 | [1] -0.013 | [2] 0.036 | [3] -0.029 | [4] -0.003 | [5] 0.023 | [6] 0.01 | [7] 0.023 | [8] -0.033 | [9] 0.057

CWF19L1 (UniProt Q69YN2)
inactive: erlotinib -0.072 | [1] 0.011 | [2] 0.028 | [3] 0.004 | [4] 0.008 | [5] 0.03 | [6] -0.042 | [7] -0.044 | [8] -0.01 | [9] 0.049

CSPP1 (UniProt Q1MSJ5)
inactive: erlotinib -0.016 | [1] -0.07 | [2] -0.028 | [3] -0.019 | [4] 0.183 | [5] 0.042 | [6] 0.117 | [7] 0.045 | [8] -0.058 | [9] 0.008

DAP (UniProt P51397)
inactive: erlotinib 0.01 | [1] -0.036 | [2] 0.075 | [3] 0.007 | [4] -0.003 | [5] 0.057 | [6] 0.003 | [7] -0.026 | [8] 0.032 | [9] 0.024

CTBP2 isoform 2 (UniProt P56545)
inactive: erlotinib 0.019 | [1] -0.015 | [2] 0.047 | [3] -0.016 | [4] 0.098 | [5] 0.003 | [6] -0.048 | [7] -0.006 | [8] -0.009 | [9] -0.018

CUL3 (UniProt Q13618)
inactive: erlotinib 0.013 | [1] 0.021 | [2] 0.08 | [3] 0.006 | [4] 0.008 | [5] 0.011 | [6] 0.031 | [7] 0.013 | [8] -0.018 | [9] 0.035

CSTF3 (UniProt Q12996)
inactive: erlotinib -0.038 | [1] 0.012 | [2] -0.003 | [3] 0.015 | [4] 0.014 | [5] 0.077 | [6] -0.032 | [7] 0.035 | [8] 0.027 | [9] -0.027

CTPS2 (UniProt Q9NRF8)
inactive: erlotinib 0.04 | [1] 0.013 | [2] 0.03 | [3] 0.007 | [4] 0.017 | [5] 0.038 | [6] 0.029 | [7] -0.019 | [8] -0.011 | [9] 0.04

CYP51A1 (UniProt Q16850)
inactive: erlotinib -0.09 | [1] 0.019 | [2] -0.248 | [3] -0.002 | [4] 0.007 | [5] 0.018 | [6] -0.096 | [7] 0.089 | [8] 0.014 | [9] 0.137

CSRP1 (UniProt P21291)
inactive: erlotinib 0.081 | [1] -0.039 | [2] 0.053 | [3] -0.024 | [4] -0.006 | [5] 0.026 | [6] 0.029 | [7] -0.014 | [8] -0.02 | [9] 0.055

CTSB (UniProt P07858)
inactive: erlotinib 0.021 | [1] -0.037 | [2] 0.026 | [3] 0.003 | [4] 0.038 | [5] 0.016 | [6] 0.009 | [7] -0.017 | [8] 0.007 | [9] 0.04

CT45A10 (UniProt P0DMU9)
inactive: erlotinib -0.051 | [1] -0.095 | [2] -0.337 | [3] 0.028 | [4] -0.079 | [5] 0.024 | [6] 0.055 | [7] -0.033 | [8] 0.015 | [9] -0.161

DAB2 (UniProt P98082)
inactive: erlotinib 0.107 | [1] 0.112 | [2] 0.01 | [3] -0.035 | [4] 0.037 | [5] 0.008 | [6] 0.002 | [7] 0.019 | [8] -0.156 | [9] -0.006

DCAKD (UniProt Q8WVC6)
inactive: erlotinib 0.045 | [1] -0.073 | [2] 0.079 | [3] 0.033 | [4] 0.082 | [5] 0.008 | [6] -0.067 | [7] -0.004 | [8] -0.001 | [9] 0.001

DBT (UniProt P11182)
inactive: erlotinib -0.041 | [1] -0.019 | [2] -0.021 | [3] 0.049 | [4] -0.03 | [5] 0.038 | [6] 0.099 | [7] -0.01 | [8] -0.006 | [9] -0.065

DAZAP1 (UniProt Q96EP5)
inactive: erlotinib -0.032 | [1] -0.042 | [2] -0.047 | [3] 0.024 | [4] 0.042 | [5] 0.015 | [6] -0.001 | [7] -0.004 | [8] 0.015 | [9] -0.015

D2HGDH (UniProt Q8N465)
inactive: erlotinib 0.002 | [1] -0.151 | [2] -0.019 | [3] 0.048 | [4] 0.016 | [5] 0.056 | [6] 0.052 | [7] 0.116 | [8] -0.009 | [9] 0.105

CYBA (UniProt P13498)
inactive: erlotinib -0.075 | [1] 0.096 | [2] -0.005 | [3] 0.025 | [4] 0.042 | [5] 0.032 | [6] 0.03 | [7] -0.072 | [8] -0.012 | [9] -0.005

CYBC1 (UniProt Q9BQA9)
inactive: erlotinib 0.015 | [1] 0.04 | [2] 0.06 | [3] 0.016 | [4] -0.003 | [5] 0.05 | [6] 0 | [7] -0.003 | [8] 0.016 | [9] 0.096

CYP20A1 (UniProt Q6UW02)
inactive: erlotinib 0.008 | [1] 0.023 | [2] 0.061 | [3] 0.004 | [4] 0.035 | [5] 0.082 | [6] -0.03 | [7] 0.038 | [8] -0.007 | [9] 0.046

CYB5R4 (UniProt Q7L1T6)
inactive: erlotinib -0.027 | [1] 0.013 | [2] 0.025 | [3] 0.021 | [4] 0.049 | [5] -0.01 | [6] 0.061 | [7] 0.033 | [8] -0.002 | [9] 0.103

DCTN6 (UniProt O00399)
inactive: erlotinib 0.009 | [1] -0.015 | [2] -0.006 | [3] 0.032 | [4] 0.007 | [5] 0.026 | [6] 0.161 | [7] -0.016 | [8] -0.011 | [9] -0.027

CTTN (UniProt Q14247)
inactive: erlotinib -0.013 | [1] -0.004 | [2] 0 | [3] -0.035 | [4] 0.029 | [5] 0.017 | [6] 0 | [7] -0.015 | [8] 0.015 | [9] 0.008

Taken from above (2 entries):
CSTF3 (UniProt Q12996)
inactive: erlotinib -0.038 | [1] 0.012 | [2] -0.003 | [3] 0.015 | [4] 0.014 | [5] 0.077 | [6] -0.032 | [7] 0.035 | [8] 0.027 | [9] -0.027

CTPS2 (UniProt Q9NRF8)
inactive: erlotinib 0.04 | [1] 0.013 | [2] 0.03 | [3] 0.007 | [4] 0.017 | [5] 0.038 | [6] 0.029 | [7] -0.019 | [8] -0.011 | [9] 0.04

The list goes on.

CWC27 (UniProt Q6UX04)
inactive: erlotinib 0.084 | [1] -0.023 | [2] 0.055 | [3] -0.049 | [4] 0.021 | [5] 0.02 | [6] 0.041 | [7] -0.102 | [8] -0.086 | [9] -0.053

CST3 (UniProt P01034)
inactive: erlotinib -0.138 | [1] -0.028 | [2] 0.095 | [3] -0.033 | [4] -0.043 | [5] 0.038 | [6] -0.001 | [7] -0.071 | [8] 0.013 | [9] 0.08

DCUN1D1 (UniProt Q96GG9)
inactive: erlotinib -0.038 | [1] 0.052 | [2] 0.041 | [3] -0.009 | [4] 0.015 | [5] 0.001 | [6] 0.021 | [7] -0.014 | [8] -0.017 | [9] 0.024

CYHR1 (UniProt E9PJD7)
inactive: erlotinib 0.004 | [1] -0.02 | [2] 0.081 | [3] 0 | [4] 0.011 | [5] 0.057 | [6] -0.044 | [7] -0.033 | [8] 0.096 | [9] 0.022

DBR1 (UniProt Q9UK59)
inactive: erlotinib 0.031 | [1] 0.042 | [2] -0.052 | [3] 0.025 | [4] -0.033 | [5] 0.002 | [6] 0.069 | [7] 0.006 | [8] -0.026 | [9] 0.044

CSTF2T (UniProt Q9H0L4)
inactive: erlotinib -0.009 | [1] 0.004 | [2] -0.027 | [3] -0.021 | [4] 0.03 | [5] 0.03 | [6] -0.005 | [7] 0.017 | [8] 0.06 | [9] -0.026

CTNNB1 (UniProt P35222)
inactive: erlotinib -0.035 | [1] 0.062 | [2] -0.033 | [3] 0.025 | [4] 0.092 | [5] 0.108 | [6] 0.036 | [7] -0.01 | [8] -0.002 | [9] -0.032
